{"source": "PubChem BioAssay AID504764 (Drosophila RNAi Screening Center, 2011)", "purpose": "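Knock-downs that raise or lower a Notch target reporter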 (primary screen)", "cell system": "Drosophila Kc167 cells", "reagents": "long dsRNA against Drosophila genes", "duration": "about 5 days (4 days dsRNA, then 24 h after transfection)", "treatment": "transfection of constitutively active membrane-tethered Notch lacking the extracellular domain, read 24 h later", "measured": "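Firefly luciferase from an E(spl)m3 reporter with active Notch, plus control-promoter and uninduced reporter wells for normalisation; unnormalised counts, duplicate wells a and b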", "scale": "induced reporter light, run 1, well a and induced reporter light, run 1, well b: higher = more light from the Notch target reporter with active Notch; control promoter light, run 1, well a and control promoter light, run 1, well b: higher = more light from the viral control promoter (cell number, transfection, viability); uninduced reporter light, run 1, well a: higher = more light from the Notch target reporter without active Notch", "rule for the call": "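Wells with low control signal or poorly matching duplicates excluded; duplicates averaged; per source plate, z beyond ±2 for induced/control log2 ratio or beyond ±1.8 for induced/uninduced marks a hit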", "meaning of the calls": "active = modifier hit (raised or lowered Notch signal); inactive = not a hit", "note": "In all, the deposit lists about 22,000 reagents; shown is a random part of those that have a named target and a result. Of all reagents, 403 (1.9%) were called active. 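Unnormalised raw counts per well; ratio z-scores behind the hit calls and whether each hit raises or lowers signal are not deposited.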 Entries without a mark were called inactive. The record does not give: the amount of reagent."}
{"gene":"CG8195","dsRNA":"DRSC07103","induced reporter light, run 1, well a":1.28e5,"induced reporter light, run 1, well b":1.41e5,"control promoter light, run 1, well a":2.20e5,"control promoter light, run 1, well b":2.90e5,"uninduced reporter light, run 1, well a":11500}
{"gene":"CG42402","dsRNA":"DRSC21116","induced reporter light, run 1, well a":71900,"induced reporter light, run 1, well b":87995,"control promoter light, run 1, well a":74335,"control promoter light, run 1, well b":1.04e5,"uninduced reporter light, run 1, well a":10120}
{"gene":"Osi8 (Osiris 8)","dsRNA":"DRSC12277","induced reporter light, run 1, well a":86905,"induced reporter light, run 1, well b":85335,"control promoter light, run 1, well a":1.12e5,"control promoter light, run 1, well b":80175,"uninduced reporter light, run 1, well a":5105}
{"gene":"CG12499","dsRNA":"DRSC14521","induced reporter light, run 1, well a":1.90e5,"induced reporter light, run 1, well b":1.79e5,"control promoter light, run 1, well a":2.38e5,"control promoter light, run 1, well b":2.57e5,"uninduced reporter light, run 1, well a":14670}
{"gene":"CG6739","dsRNA":"DRSC02987","induced reporter light, run 1, well a":1.84e5,"induced reporter light, run 1, well b":1.41e5,"control promoter light, run 1, well a":1.76e5,"control promoter light, run 1, well b":1.61e5,"uninduced reporter light, run 1, well a":8260}
{"gene":"Apl (Apollo)","dsRNA":"DRSC10350","induced reporter light, run 1, well a":2.22e5,"induced reporter light, run 1, well b":1.64e5,"control promoter light, run 1, well a":2.42e5,"control promoter light, run 1, well b":1.87e5,"uninduced reporter light, run 1, well a":7130}
{"gene":"CG13038","dsRNA":"DRSC09919","induced reporter light, run 1, well a":1.34e5,"induced reporter light, run 1, well b":1.05e5,"control promoter light, run 1, well a":1.40e5,"control promoter light, run 1, well b":1.15e5,"uninduced reporter light, run 1, well a":8482}
{"gene":"Paf-AHalpha (Platelet-activating factor acetylhydrolase alpha)","dsRNA":"DRSC20267","induced reporter light, run 1, well a":63525,"induced reporter light, run 1, well b":62055,"control promoter light, run 1, well a":73625,"control promoter light, run 1, well b":88690,"uninduced reporter light, run 1, well a":9505}

Targets above whose gene name begins with C or c (5):
{"gene":"CG8195","dsRNA":"DRSC07103","induced reporter light, run 1, well a":1.28e5,"induced reporter light, run 1, well b":1.41e5,"control promoter light, run 1, well a":2.20e5,"control promoter light, run 1, well b":2.90e5,"uninduced reporter light, run 1, well a":11500}
{"gene":"CG42402","dsRNA":"DRSC21116","induced reporter light, run 1, well a":71900,"induced reporter light, run 1, well b":87995,"control promoter light, run 1, well a":74335,"control promoter light, run 1, well b":1.04e5,"uninduced reporter light, run 1, well a":10120}
{"gene":"CG12499","dsRNA":"DRSC14521","induced reporter light, run 1, well a":1.90e5,"induced reporter light, run 1, well b":1.79e5,"control promoter light, run 1, well a":2.38e5,"control promoter light, run 1, well b":2.57e5,"uninduced reporter light, run 1, well a":14670}
{"gene":"CG6739","dsRNA":"DRSC02987","induced reporter light, run 1, well a":1.84e5,"induced reporter light, run 1, well b":1.41e5,"control promoter light, run 1, well a":1.76e5,"control promoter light, run 1, well b":1.61e5,"uninduced reporter light, run 1, well a":8260}
{"gene":"CG13038","dsRNA":"DRSC09919","induced reporter light, run 1, well a":1.34e5,"induced reporter light, run 1, well b":1.05e5,"control promoter light, run 1, well a":1.40e5,"control promoter light, run 1, well b":1.15e5,"uninduced reporter light, run 1, well a":8482}

Additional results:
{"gene":"CG7548","dsRNA":"DRSC10874","induced reporter light, run 1, well a":1.85e5,"induced reporter light, run 1, well b":2.00e5,"control promoter light, run 1, well a":1.97e5,"control promoter light, run 1, well b":1.84e5,"uninduced reporter light, run 1, well a":10115}
{"gene":"betaNACtes2 (Nascent-associated complex beta-subunit-like, testis 2)","dsRNA":"DRSC19792","induced reporter light, run 1, well a":88780,"induced reporter light, run 1, well b":65400,"control promoter light, run 1, well a":67635,"control promoter light, run 1, well b":55555,"uninduced reporter light, run 1, well a":10650}
{"gene":"flfl (falafel)","dsRNA":"DRSC16474","induced reporter light, run 1, well a":93420,"induced reporter light, run 1, well b":80860,"control promoter light, run 1, well a":54340,"control promoter light, run 1, well b":40015,"uninduced reporter light, run 1, well a":4870}
{"gene":"CG14667","dsRNA":"DRSC12253","induced reporter light, run 1, well a":85355,"induced reporter light, run 1, well b":88375,"control promoter light, run 1, well a":52215,"control promoter light, run 1, well b":60695,"uninduced reporter light, run 1, well a":5300}
{"gene":"rudhira","dsRNA":"DRSC19821","induced reporter light, run 1, well a":11980,"induced reporter light, run 1, well b":11310,"control promoter light, run 1, well a":11940,"control promoter light, run 1, well b":13155,"uninduced reporter light, run 1, well a":5605}
{"gene":"Dhit (Double hit)","dsRNA":"DRSC07411","induced reporter light, run 1, well a":93140,"induced reporter light, run 1, well b":1.14e5,"control promoter light, run 1, well a":1.69e5,"control promoter light, run 1, well b":1.83e5,"uninduced reporter light, run 1, well a":7745}
{"gene":"Ubqn (Ubiquilin)","dsRNA":"DRSC19581","induced reporter light, run 1, well a":1.25e5,"induced reporter light, run 1, well b":1.30e5,"control promoter light, run 1, well a":95660,"control promoter light, run 1, well b":49685,"uninduced reporter light, run 1, well a":8765}
{"gene":"GstE3 (Glutathione S transferase E3)","dsRNA":"DRSC06673","induced reporter light, run 1, well a":36200,"induced reporter light, run 1, well b":31360,"control promoter light, run 1, well a":47940,"control promoter light, run 1, well b":30760,"uninduced reporter light, run 1, well a":2480}
{"gene":"CG31533","dsRNA":"DRSC13018","induced reporter light, run 1, well a":1.18e5,"induced reporter light, run 1, well b":92350,"control promoter light, run 1, well a":1.25e5,"control promoter light, run 1, well b":1.08e5,"uninduced reporter light, run 1, well a":8010}
{"gene":"CSN5 (COP9 signalosome subunit 5)","dsRNA":"DRSC16592","induced reporter light, run 1, well a":1.85e5,"induced reporter light, run 1, well b":1.77e5,"control promoter light, run 1, well a":2.05e5,"control promoter light, run 1, well b":1.90e5,"uninduced reporter light, run 1, well a":17715}
